## Screening data, single-dose tests

Measurements from “University of Dundee, Small-Polar-MMV Screening Library” (2021), ChEMBL document CHEMBL3988442.

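Whole-cell growth test on Mycobacterium tuberculosis, read after 4 days in a medium based on cholesterol and the lipid DPPC; the read-out is not stated. Compounds at 50 µM. The record gives no direction; compounds that gave an IC50 in retests scored well above the rest, so higher reads as more growth inhibition. Size under these conditions: about 69,000 compounds, about 370 of them at 50% or above in at least one test.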

Each number is a percent effect as filed.
How 0% and 100% were set is not recorded. Most values in the screen are low, and negative values occur.
The compounds are a random part of those screened.
Two or more numbers in one place are separate tests of the same structure; such repeats can differ widely.

- CCc1nsc(NC2CCOC3(CCCC3)C2)n1 (stereo not shown) | 42.66%
- Cc1cc(CN(C)CCN(C)c2ccccc2)no1 | 17.01%
- Cc1cccc2[nH]c(-c3cn(C4CCNCC4)nn3)nc12 | 1.394%
- O=C(COCC1CC1)Nc1ncn(CC(=O)N2CCCCCC2)n1 | -12.98%
- CNc1cc2c(nn1)CCN(C(=O)c1cc(F)cc(F)c1)C2 | -32.99%
- Cc1nnc(CN2CCCC2c2ccc(Cl)c(Cl)c2)o1 (stereo not shown) | 2.931%
- Cc1ccc2nc(C3CCCN3Cc3csc(C)n3)[nH]c2c1 (stereo not shown) | 17.97% & 0.3638%
- O=S(=O)(NCc1ccccc1)NCc1nc(-c2ccncc2)n[nH]1 | -5.641%
- [H][C@@]12C[C@@H](OCc3cccnc3)CN1CCN(C(=O)c1ccsc1)C2 | -7.603%
- CCCNC(=O)N1CCc2ccc(S(=O)(=O)N3CCCC3)cc2C1 | 6.697%
- CC(C)c1cc(CN2CCC(CC(=O)O)CC2)no1 | -3.848%
- Cc1cnn(C2CN(Cc3nc(-c4ccccc4C)no3)C2)c1 | 5.369%
- O=C(c1cnccn1)N1CCN(Cc2cscn2)CC1 | -8.808%
- [H][C@]12CC[C@]([H])(CN(C(=O)CCc3n[nH]c(C)c3C)C1)N(CCOC)C2=O | -34.83%
- Cc1cc(N2CCCC2c2nnc3n2CCCCC3)nc(N)n1 (stereo not shown) | -3.01%
- FC(F)(F)COCCN1CCN(c2ccc3nncn3n2)CC1 | 10.06%
- CCNC(=O)c1ccnc(CC2COc3c(cccc3OC)C2)c1 (stereo not shown) | -10.89%
- Cc1nccc(N[C@H]2CN(C(=O)CN3CCOCC3)C[C@@H]2C(C)C)n1 | 34.1%
- OCCCN1CCCC1c1cccc(Br)c1 (stereo not shown) | -7.716%
- CCc1n[nH]c(C2CN(C(=O)c3cnns3)CCO2)n1 (stereo not shown) | 0.3579%
- O=C(O)C(F)(F)F.O=C(O)C(F)(F)F.O=C(O)C(F)(F)F.[H][C@]12CCN(Cc3ccccn3)[C@@]1([H])CC[C@@H](COCc1ccncc1)O2 | -12.63%
- CCn1cc(CN2CCCN(C(=O)CCc3nccs3)CC2)cn1 | -0.4374%
- Cc1ccc(Oc2ncccc2C(=O)N(C)CCCN(C)C)c(C)c1 | -23.23%
- c1csc(-c2nc(CNC3CCc4ncnn4C3)co2)c1 (stereo not shown) | -12.7%
- CCCn1nc(C)c(CN2CC3(CCOC3)CCC2=O)c1C (stereo not shown) | -23.08%
- CCc1nc(NCC(=O)N2CCOCC2)c2c(n1)c(C)nn2CC | -16.78%
- Cc1ccc(C(=O)N2CCC3(CCC(=O)N(CC(N)=O)C3)CC2)c(O)c1 | -28.98%
- CCN(c1ccc(C(=O)N2CCCCC2)cc1)S(=O)(=O)CC | 0.856%
- CC(C)c1ccsc1C(=O)N1CCCN(Cc2cscn2)CC1 | -37.28%
- CC(C)OCc1ccccc1CNC(=O)C(C)S(=O)(=O)C(C)C (stereo not shown) | 0.7508% & -3.74%
- CC(NC(=O)CCCOc1ccccc1)c1nnc2n1CCCCC2 (stereo not shown) | -24.31%
- CN1C[C@@H](F)[C@@H](OCc2nc3ccccc3[nH]2)C1 | 16.86%
- Cl.Cn1ccnc1CNC(=O)c1cncc(C2CCNCC2)n1 | -2.556% & -2.389%
- O=C(O)CC1COCCN1Cc1ccccc1OCCc1ccccc1 (stereo not shown) | -14.6%
- CC(C)n1nc(CNc2ncccn2)c2c1CN(C1CCOCC1)CC2.O=C(O)C(F)(F)F | -5.203%

For reference, 3 entries once more:

SMILES	effect
Cc1nnc(CN2CCCC2c2ccc(Cl)c(Cl)c2)o1 (stereo not shown)	2.931%
O=C(COCC1CC1)Nc1ncn(CC(=O)N2CCCCCC2)n1	-12.98%
FC(F)(F)COCCN1CCN(c2ccc3nncn3n2)CC1	10.06%